Article doi:10.1101/2025.09.02.671137 (bioRxiv, 2025)
Results are given in words; binding and its absence hold for the method and conditions named. Some results given as binding are weak or reduced against the parent protein; the word gives no strength.

Target: Cdc13-K504E (K504E point mutant of full-length Cdc13) (S. cerevisiae) (UniProt P32797)
Test: SEC

binding: binds
B1: Cdc13-K504E (K504E point mutant of full-length Cdc13) (protein, UniProt P32797 1-924)
chain: MDTLEEPECPPHKNRIFVSSSKDFEGYPSKAIVPVQFVALLTSIHLTETKCLLGFSNFERRGDQSQEDQYLIKLKFKDRGSERLARITISLLCQYFDIELPDLDSDSGASPTVILRDIHLERLCFSSCKALYVSKHGNYTLFLEDIKPLDLVSVISTISTKSTNSSKHSSSELISECDLNNSLVDIFNNLIEMNRDEKNRFKFVKLIHYDIELKKFVQDQQKVLSQKSKAAAINPFFVPNRLGIPYIESQNEFNSQLMTLNVDEPTTDISNMGEEMHDSADPIEDSDSSTTSSTGKYFSSKSYIQSQTPERKTSVPNNWHDDDSGSKRKRKLSFHSPNASSIRKAISYEQLSLASVGSVERLEGKIVGMNPPQFASINEFKYCTLKLYFTQLLPNVPDKVLVPGVNCIEIVIPTRERICELFGVLNCQSDKISDILLLEKPDRISVEVERILWDNDKTASPGMAVWSLKNISTDTQAQAQVQVPAQSSASIDPSRTRMSKMAREDPTIEFCQLGLDTFETKYITMFGMLVSCSFDKPAFISFVFSDFTKNDIVQNYLYDRYLIDYENKLELNEGFKAIMYKNQFETFDSKLRKIFNNGLRDLQNGRDENLSQYGIVCKMNIKVKMYNGKLNAIVRECEPVPHSQISSIASPSQCEHLRLFYQRAFKRIGESAISRYFEEYRRFFPIHRNGSHLAKLRFDEVKHEPKKSPTTPALAEHIPDLNADVSSFDVKFTDISSLLDSSARLPRPQQTHKSNTLYSCEGRIIAIEYHASDLCFHITNELPLLQTRGLAPERVLQLHIITSKNFAYFFNRSSAYLQRQPLEEKYTQLAQFLGHSFKFNITSSLTLFPDTTVALQIWCPIECTFRELQQQLAHPKVAAAPDSGSLDCAINATVNPLRLLAAQNGVTVKKEEDNDDDAGAVPTS
